Reference: PubChem BioAssay AID977622 (Broad Institute, 2014)
In all, about 1,900 compounds went through this assay and fewer than 10 were called active. Another 39% or so got no clear call; they are omitted.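 The calls were made as follows: active = Green signal of the normal strain falls at least twice as much as red signal of the resistant mutant, with overall culture growth loss under a set limit; inconclusive = no clear call, values can overlap the other calls; inactive = the rest.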 Only a part is listed here, and it is no random draw.

assay: wild-type E. coli growth inhibition versus h38 humanized strain – h38 mutant RFP, wild-type GFP, cherry-pick, dose response (AID 977622); details: E. coli WT ribosome GFP fluorescence, mixed culture, 24 h; at 50 µM (top of the series)

Activity change, negative = inhibition, inactive:
C[C@@H](Nc1nc(-c2ccccc2)nc2c1oc1ccccc12)C(=O)O -3.34
COc1ccc(C2=NN(C(=O)c3cccnc3)C(c3ccccc3)C2)cc1 (configuration not stated) -0.496
Cc1ccc(NC(=O)CCCSc2ccccc2)cc1S(=O)(=O)N1CCOCC1 2.61
COc1cccc(NC(=O)C(c2ccccc2)N2CCN(c3ccccn3)CC2)c1 (configuration not stated) -6.81
OC(COc1ccc(Cl)cc1)CN1CCN(c2ccccn2)CC1 (configuration not stated) -12.3
CN(C)S(=O)(=O)c1cccc(NC(=O)c2ccc3c(c2)S(=O)(=O)N=C2CCCCCN23)c1 -1.75
Cc1n[nH]c(C)c1S(=O)(=O)N1CCCC(C(=O)Nc2ccc(Br)cc2)C1 (configuration not stated) -10.5
COc1ccc(CNC(=O)c2sc3nc4c(c(C(F)(F)F)c3c2N)CCC4)cc1OC -5.32
O=C(COc1cccc2c1CCN(Cc1ccccc1F)C2=O)N1CCCCC1 0.231
COc1ccc(OC)c(-c2nn(-c3ccccc3)cc2C(=O)N2CCc3ccccc3C2)c1 -5.75
COC(=O)CN1C(=S)N(c2ccc(F)cc2)C(=O)C1CC(=O)Nc1ccc(OC)cc1 (configuration not stated) -5.3
Cc1cccc(OCCC(=O)N(C)CC(=O)Nc2cccc3ccccc23)c1 -8.41
CCOc1ccccc1N1CC(C(=O)Nc2cccc(S(=O)(=O)N3CCCCC3)c2)CC1=O (configuration not stated) -4.5
O=S(=O)(c1ccc(Cl)cc1)N1CCN=C1SCc1cccc(Cl)c1 1.26
O=C(Nc1ccccc1N1CCOCC1)C1CCCCN1S(=O)(=O)c1ccccc1 (configuration not stated) -15.4
COc1ccc(CC(=O)Nc2cc(S(=O)(=O)Nc3ccc(OC)cc3)ccc2OC)cc1 4.32
CCN(CC)c1nc(Oc2ccc(C(=O)OC)cc2)nc(N2CCOCC2)n1 -8.27
Cc1ccc(Cc2c(-c3cccc(Br)c3)nc3ccc(C)cn23)cc1 2
Cc1cc(C(=O)Nc2ccc(Cl)cc2)c(C)n1Cc1cccs1 -7.89
Cc1ccc(N2C(=S)NC3c4cc(Cl)ccc4OC2(C)C3C(=O)N(C)C)cc1 (configuration not stated) -10.7
CC(=O)Nc1ccc(CNc2nc(NCCN(C)C)nc3cc(-c4ccccc4)sc23)cc1 4.04
COc1ccc(C#Cc2ccc([C@H]3[C@@H](CO)N4CCCCN(C(=O)Nc5cccc(F)c5)C[C@H]34)cc2)cc1 -1.39
COc1cc(OC)cc(-c2nc3ccccc3c(=O)n2OC(=O)c2ccc(C)c(C)c2)c1 -3.36
O=C(O)CC1(CC(=O)Nc2ccc3sccc3c2)CCCCC1 -12.3
Fc1ccc(Br)cc1SCCc1ccncc1 -8.16
C[C@@H]1CN([C@@H](C)CO)C(=O)c2cc(NS(=O)(=O)c3ccccc3)ccc2O[C@@H]1CN(C)Cc1ccc(C(=O)Nc2ccccc2N)cc1 -3.33
COc1cc2c(cc1OC)C1(C)N(CC2)C(C(C)=O)=NN1c1ccc(Cl)cc1 (configuration not stated) 2.13
COc1ccccc1-c1noc2ncnc(Nc3cccc(C)c3C)c12 4.96
N#Cc1nc(COc2cccc(Cl)c2)oc1N1CCCC1 -4.18
CCOC(=O)c1ccc(NC(=O)c2ccc(OC(C)C)c(OC)c2)cc1 -2.49
Cn1c(=O)c2c(ncn2CC(O)CNc2ccc(F)cc2)n(C)c1=O (configuration not stated) 6.36
O=C(O)CC(CC(=O)Nc1ccc2ccccc2n1)c1ccccc1 (configuration not stated) 3.62
Cc1ccc(S(=O)(=O)Nc2ccccc2CNc2cccc(C)n2)cc1 -12.7
CN1N=C2c3ccccc3CCC2C1c1ccc(F)cc1 (configuration not stated) -5.58
CCOC(=O)C(CC)Sc1cc(C)nc2ccc(OC)cc12 (configuration not stated) -2
CN(Cc1ccc([N+](=O)[O-])cc1)c1ccccc1 -1.08
COc1cccc(-c2ccc(NC(=O)C3CCCN(Cc4cnn(C(C)C)c4)C3)cc2)c1 (configuration not stated) 2.6
COc1ccc([C@H]2C[C@H](O)C[C@@H](CCn3cc(-c4ccccc4)nn3)O2)cc1 2.17
O=C(Nc1c(S(=O)(=O)c2ccc(Cl)cc2)csc1Br)c1ccccc1Cl 7.56
Cc1cc(C)cc(NC(=O)COC(=O)CC2CCCC2)c1 -3.69
NS(=O)(=O)c1ccc(NC(=O)c2cc(Cl)sc2Cl)cc1 -3.66
Cc1ccc(S(=O)(=O)NC(C)C(=O)NCc2ccc(Cl)cc2)cc1 (configuration not stated) -10.9
CC1CCCC(NC(=O)COC(=O)[C@@H]2CC(O)CN2S(=O)(=O)c2ccc3c(c2)OCCO3)C1C (some centres not stated) -1.15
Cc1ccc2oc(=O)n(CCCOc3ccccc3C)c2c1 -7.75
COC(=O)c1ccc2nc(-c3ccc(F)cc3)c(Cc3cccc(F)c3)n2c1 1.79
CCc1nc2ccccc2c(C(=O)OCC(=O)NC(=O)c2cccn2C)c1C -12.3
Cc1ccc(NC(=O)c2ccccc2F)c(NC(=O)c2ccccc2F)c1 -1.05
CNC(=O)c1ccsc1NC(=O)c1ccc(S(=O)(=O)N2CCc3ccccc32)cc1 -14.8
Cc1cc(SCC(=O)c2cccs2)n2nc(C)c(-c3ccc(Cl)cc3)c2n1 0.716
CCOC(=O)Cc1csc(SCC(=O)Nc2cc(C)ccc2OC)n1 4.94
Cc1onc(-c2ccccc2Cl)c1C(=O)OCC(=O)c1ccccc1 -4.52
CC(=O)Oc1ccc(N(c2ccccc2)S(=O)(=O)c2ccc(C)cc2)cc1 -9.59
O=C(COc1ccc(Br)cc1)Nc1ccc(C(=O)Nc2ccccc2C(=O)O)cc1 -7.1
CCOc1ccc2[nH]c3c(NCCN(C)C)ncnc3c2c1 6.49
Cc1cc(C(N)=O)nn1-c1c(Cl)cc(Cl)cc1Cl -2.24
CC1Cc2cc(S(=O)(=O)N3CCN(c4cccc(Cl)c4)CC3)ccc2N1C(=O)C1CC1 (configuration not stated) -2.93
COc1cc(CC(=O)Nc2nc(C)cs2)cc(OC)c1OC -3.89

Looked up by structure from the entries so far, four records:
Activity change, negative = inhibition, inactive:
COc1ccccc1-c1noc2ncnc(Nc3cccc(C)c3C)c12 4.96
O=C(COc1ccc(Br)cc1)Nc1ccc(C(=O)Nc2ccccc2C(=O)O)cc1 -7.1
CCOc1ccc2[nH]c3c(NCCN(C)C)ncnc3c2c1 6.49
COC(=O)CN1C(=S)N(c2ccc(F)cc2)C(=O)C1CC(=O)Nc1ccc(OC)cc1 (configuration not stated) -5.3
